Where a name gives a salt, the structure may show the parent alone. The list shows a part of the results. Part of the spread comes from offsets between plates or batches.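 Biofilm, quantified by the absorbance of well-retained crystal violet, is assayed using the K-12 laboratory model grown unshaken in 96-well plates. Candidate specific biofilm inhibitors were drugs that sharply lowered staining yet reduced free-floating growth by less than 70%.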
system: Escherichia coli W3110; test: biofilm formation (crystal violet staining) relative to untreated control; higher = more biofilm; settings: 10 µM; 20-24 h; 30 °C; TB

N[C@@H](Cc1cc(I)c(Oc2ccc(O)c(I)c2)c(I)c1)C(=O)O [Liothyronine] and COc1ccc2cc([C@H](C)C(=O)O)ccc2c1 [(S)-Naproxen] are the same in biofilm formation: 70% for the first, 70% for the second.

Going from Nc1c2ccccc2nc2ccccc12 [Aminacrine] to CC(=O)CC(c1ccccc1)c1c(O)c2ccccc2oc1=O (stereo not drawn) [Warfarin], the biofilm formation falls from 79% to 63%.

Going from CN1CCC(=C2c3ccccc3Sc3ccccc32)CC1 [Pimethixene maleate] to CN1CCN(C(c2ccccc2)c2ccccc2)CC1 [Cyclizine hydrochloride], the biofilm formation rises from 81% to 106%.

Compared with C[C@H](CCC(=O)O)[C@H]1CC[C@H]2[C@@H]3[C@@H](O)C[C@@H]4C[C@H](O)CC[C@]4(C)[C@H]3CC[C@]12C [Urosiol], C#C[C@]1(O)CC[C@H]2[C@@H]3CCC4=CCCC[C@@H]4[C@H]3CC[C@@]21C [Lynestrenol] is lower in biofilm formation: 82% for the first, 47% for the second.

Going from O=C(CCCN1CCN(c2ccccn2)CC1)c1ccc(F)cc1 [Azaperone] to Cc1nc2ccccn2c(=O)c1CCN1CCC(C(=O)c2ccc(F)cc2)CC1 [Pirenperone], the biofilm formation falls from 112% to 70%.

Going from NC[C@@H]1O[C@@H](O[C@H]2[C@H](O)[C@@H](O[C@H]3O[C@H](CO)[C@@H](O)[C@H](N)[C@H]3O)[C@H](N)C[C@@H]2N)[C@@H](O)[C@H](O)[C@H]1O [Kanamycin A sulfate] to CO[C@@H]1[C@@H](O[C@@H]2O[C@H](C)[C@@H](O[C@H]3C[C@@](C)(O)[C@@H](OC(=O)CC(C)C)[C@H](C)O3)[C@H](N(C)C)[C@H]2O)[C@@H](CC=O)C[C@@H](C)[C@@H](O)/C=C/C=C/C[C@@H](C)OC(=O)C[C@H]1OC(C)=O [Josamycin], the biofilm formation rises from 69% to 95%.

Compared with COC(=O)C1=C(C#N)NC(C)=C(C(=O)OC(C)C)C1c1cccc([N+](=O)[O-])c1 (stereo not drawn) [Nilvadipine], CC1(C)S[C@@H]2[C@H](NC(=O)[C@H](N)c3ccccc3)C(=O)N2[C@H]1C(=O)O [Ampicillin trihydrate] is lower in biofilm formation: 59% for the first, 5% for the second.

Going from CC1CC(OC(=O)c2ccccc2O)CC(C)(C)C1 (stereo not drawn) [Homosalate] to O=C(O)c1ccccc1OP(=O)(O)O [Fosfosal], the biofilm formation falls from 96% to 62%.

Compared with OCCN(CCO)c1nc(N2CCCCC2)c2nc(N(CCO)CCO)nc(N3CCCCC3)c2n1 [Dipyridamole], Nc1cc(N2CCCCC2)nc(N)[n+]1[O-] [Minoxidil] is higher in biofilm formation: 77% for the first, 79% for the second.

Compared with CN(c1nccc(=O)[nH]1)C1CCN(c2nc3ccccc3n2Cc2ccc(F)cc2)CC1 [Mizolastine], Cc1ccc(NC(=O)c2ccc(CN3CCN(C)CC3)cc2)cc1Nc1nccc(-c2cccnc2)n1 [Imatinib] is higher in biofilm formation: 104% for the first, 128% for the second.

First: O=C(O)c1ccccc1C(=O)Nc1ccc(S(=O)(=O)Nc2nccs2)cc1 [Phthalylsulfathiazole]
Second: O=C(O)c1cc(/N=N/c2ccc(S(=O)(=O)Nc3ccccn3)cc2)ccc1O [Sulfasalazine]
The biofilm formation of the first is lower: 63% for the first, 100% for the second.

First: COc1cccc2c1C(=O)c1c(O)c3c(c(O)c1C2=O)C[C@@](O)(C(C)=O)C[C@@H]3O[C@H]1C[C@H](N)[C@H](O)[C@H](C)O1 [Daunorubicin hydrochloride]
Second: COc1cccc2c1C(=O)c1c(O)c3c(c(O)c1C2=O)C[C@@](O)(C(=O)CO)C[C@@H]3O[C@H]1C[C@H](N)[C@@H](O)[C@H](C)O1 [Epirubicin hydrochloride]
The biofilm formation of the first is lower: 56% for the first, 58% for the second.

Compared with C=CC1=C(C(=O)O)N2C(=O)[C@@H](NC(=O)/C(=N\O)c3csc(N)n3)[C@H]2SC1 [Cefdinir], CC=CC1=C(C(=O)O)N2C(=O)[C@@H](NC(=O)[C@H](N)c3ccc(O)cc3)[C@H]2SC1 [Cefprozil] is higher in biofilm formation: 12% for the first, 105% for the second.

First: CC(=O)NS(=O)(=O)c1ccc(N)cc1 [Sulfacetamide sodic hydrate]
Second: CC(C)NC[C@@H](O)COc1ccc(CC(N)=O)cc1 [(R)-(+)-Atenolol]
The biofilm formation of the first is lower: 52% for the first, 84% for the second.

Compared with Cc1cn([C@H]2C=C[C@@H](CO)O2)c(=O)[nH]c1=O [Stavudine], CCCC1C(=O)N2C(N(C)C)=Nc3ccc(C)cc3N2C1=O (stereo not drawn) [Azapropazone] is higher in biofilm formation: 75% for the first, 79% for the second.

Going from CCN(CC)CC(=O)Nc1c(C)cccc1C [Lidocaine hydrochloride] to CCCN1CCCC[C@H]1C(=O)Nc1c(C)cccc1C [Ropivacaine hydrochloride], the biofilm formation rises from 86% to 102%.

First: c1ccc2c(CC3=NCCN3)cccc2c1 [Naphazoline hydrochloride]
Second: O=C(CCNNC(=O)c1ccncc1)NCc1ccccc1 [Nialamide]
The biofilm formation of the first is lower: 65% for the first, 67% for the second.

Going from CC(=O)OCC(=O)[C@@]12OC(C)(C)O[C@@H]1C[C@H]1[C@@H]3C[C@H](F)C4=CC(=O)C=C[C@]4(C)[C@@]3(F)[C@@H](O)C[C@@]12C [Fluocinonide] to CC(=O)[C@@]1(O)CC[C@H]2[C@@H]3C[C@H](C)C4=CC(=O)C=C[C@]4(C)[C@@]3(F)[C@@H](O)C[C@@]21C [Fluorometholone], the biofilm formation rises from 87% to 97%.

Compared with CC[C@@H]1C(=O)OC[C@@H]1Cc1cncn1C [Pilocarpine nitrate], O=c1n(CCCN2CCN(c3cccc(Cl)c3)CC2)nc2ccccn12 [Trazodone hydrochloride] is lower in biofilm formation: 78% for the first, 62% for the second.

Compared with NS(=O)(=O)c1cc2c(cc1C(F)(F)F)NCNS2(=O)=O [Hydroflumethiazide], CCOc1ccc2nc(S(N)(=O)=O)sc2c1 [Ethoxzolamide] is higher in biofilm formation: 68% for the first, 74% for the second.

Cc1c(NC(=O)c2cccnc2)c(=O)n(-c2ccccc2)n1C [Nifenazone] and Cc1c(O)c(=O)n(-c2ccccc2)n1C [Antipyrine, 4-hydroxy] are the same in biofilm formation: 78% for the first, 78% for the second.

Going from CS(=O)(=O)OCCCCOS(C)(=O)=O [Busulfan] to CCc1cccc(CC)c1NC(=O)CN(CC(=O)O)CC(=O)O [Etifenin], the biofilm formation rises from 65% to 71%.

Going from CC(=O)O[C@H]1C(=O)[C@@]2(C)[C@H]([C@H](OC(=O)c3ccccc3)[C@]3(O)C[C@H](OC(=O)[C@H](O)[C@@H](NC(=O)c4ccccc4)c4ccccc4)C(C)=C1C3(C)C)[C@]1(OC(C)=O)CO[C@@H]1C[C@@H]2O [Paclitaxel] to C[C@@H]1C[C@H]2[C@@H]3CCC4=CC(=O)C=C[C@]4(C)[C@@]3(Cl)[C@@H](O)C[C@]2(C)[C@@]1(OC(=O)c1ccco1)C(=O)CCl [Mometasone furoate], the biofilm formation rises from 85% to 86%.

First: CCCN(CCC)CCc1cccc2c1CC(=O)N2 [Ropinirole hydrochloride]
Second: CCCCc1ccc2[nH]c(NC(=O)OC)nc2c1 [Parbendazole]
The biofilm formation of the first is lower: 77% for the first, 95% for the second.

Compared with N/C(=N\C(=O)c1nc(Cl)c(N)nc1N)NCc1ccccc1 [Benzamil hydrochloride], CCc1nc(N)nc(N)c1-c1ccc(Cl)cc1 [Pyrimethamine] is higher in biofilm formation: 56% for the first, 66% for the second.

Compared with CSc1nc2cc(Cl)c(Oc3cccc(Cl)c3Cl)cc2[nH]1 [Triclabendazole], Clc1ccc(C(Cn2ccnc2)OCc2ccsc2Cl)c(Cl)c1 (stereo not drawn) [Tioconazole] is lower in biofilm formation: 63% for the first, 38% for the second.

Going from NC(=O)c1cnccn1 [Pyrazinamide] to C[C@](N)(Cc1ccc(O)c(O)c1)C(=O)O [Methyldopa (L,-)], the biofilm formation falls from 75% to 61%.

Compared with C/C=C(/C(=C/C)c1ccc(O)cc1)c1ccc(O)cc1 [Dienestrol], CC(C)OC(=O)C(C)(C)Oc1ccc(C(=O)c2ccc(Cl)cc2)cc1 [Fenofibrate] is lower in biofilm formation: 87% for the first, 45% for the second.

Compared with Cc1ncc([N+](=O)[O-])n1CC(C)O (stereo not drawn) [Secnidazole], CN/C(=N\CCSCc1nc[nH]c1C)NC#N [Cimetidine] is lower in biofilm formation: 56% for the first, 55% for the second.

First: C/C(=C\C(=O)OCCCCCCCCC(=O)O)C[C@@H]1OC[C@H](C[C@@H]2O[C@H]2[C@@H](C)[C@H](C)O)[C@@H](O)[C@H]1O [Mupirocin]
Second: C[C@H]1c2cccc(O)c2C(=O)C2=C(O)[C@]3(O)C(=O)C(C(N)=O)=C(O)[C@@H](N(C)C)[C@@H]3[C@@H](O)[C@@H]21 [Doxycycline hydrochloride]
The biofilm formation of the first is higher: 71% for the first, 30% for the second.

First: Nc1ncnc2c1ncn2C1OC(COP(=O)(O)O)C(O)C1O (stereo not drawn) [Adenosine 5'-monophosphate monohydrate]
Second: CCOC(=O)O[C@]1(C(=O)OCCl)CC[C@H]2[C@@H]3CCC4=CC(=O)C=C[C@]4(C)[C@H]3[C@@H](O)C[C@@]21C [Loteprednol etabonate]
The biofilm formation of the first is lower: 53% for the first, 54% for the second.

Compared with CN1CCCN(C(c2ccccc2)c2ccc(Cl)cc2)CC1 (stereo not drawn) [Homochlorcyclizine dihydrochloride], Cc1cc2c(s1)Nc1ccccc1N=C2N1CCN(C)CC1 [Olanzapine] is higher in biofilm formation: 57% for the first, 84% for the second.

First: C[C@@H](O[C@H]1OCCN(Cc2n[nH]c(=O)[nH]2)[C@H]1c1ccc(F)cc1)c1cc(C(F)(F)F)cc(C(F)(F)F)c1 [Aprepitant]
Second: c1cnc(N2CCN(Cc3ccc4c(c3)OCO4)CC2)nc1 [Piribedil hydrochloride]
The biofilm formation of the first is lower: 53% for the first, 81% for the second.

CN1CCCN=C1/C=C/c1cccc(O)c1 [Oxantel pamoate] and COc1ccc(-c2cc(=S)ss2)cc1 [Anethole-trithione] are the same in biofilm formation: 80% for the first, 80% for the second.

Going from CC(N)CCCC(C)(C)O (stereo not drawn) [Heptaminol hydrochloride] to CC(C)NCC(O)COc1ccc(CCOCC2CC2)cc1 (stereo not drawn) [Betaxolol hydrochloride], the biofilm formation rises from 56% to 73%.

First: C1CCC(C(CC2CCCCN2)C2CCCCC2)CC1 (stereo not drawn) [Perhexiline maleate]
Second: C#CCN[C@@H]1CCc2ccccc21 [Rasagiline]
The biofilm formation of the first is lower: 46% for the first, 77% for the second.

COc1cc(C(=O)NCc2ccc(OCCN(C)C)cc2)cc(OC)c1OC [Trimethobenzamide hydrochloride] gave a biofilm formation of 96%.
